Assay results published in US8912139B2, “Peptide compositions and methods for treating lung injury, asthma, anaphylaxis, angioedema, systemic vascular permeability syndromes, and nasal congestion” (The Board of Trustees of the University of Illinois, priority 2011, dated 2014).
Entries after “also recorded” stand apart in the source; their conditions may differ. At least one peptide structure holds a part that was inferred or is arguable (an end, a ring closure or a residue). Peptide text beside a SMILES is read from it.

Protein sequences, listed by entry. Tags and fused reporters are not part of them.
UniProt Q6PER3, whole entry: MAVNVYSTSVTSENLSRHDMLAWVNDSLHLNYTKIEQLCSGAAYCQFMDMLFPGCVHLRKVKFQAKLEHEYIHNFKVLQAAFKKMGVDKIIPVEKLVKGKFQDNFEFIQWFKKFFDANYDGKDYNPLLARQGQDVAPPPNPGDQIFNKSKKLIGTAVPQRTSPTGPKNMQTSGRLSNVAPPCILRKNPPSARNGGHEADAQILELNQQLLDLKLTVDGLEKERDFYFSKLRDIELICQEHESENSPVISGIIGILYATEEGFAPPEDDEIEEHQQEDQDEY

Legend:
[1] = tested on: LPS-induced lung inflammation; assay: Lung myeloperoxidase (MPO) activity, neutrophil infiltration in LPS-induced inflammation; format: in vivo, mice; details: LPS 30 mg/kg i.p.; peptide 30 minutes prior to LPS; 2 and 6 hrs; vs control peptide
EB3/IP3R3 interaction = target: T1, EB3/IP3R3 interaction (Mus musculus, UniProt Q6PER3); assay: EB3/IP3R3 interaction by immunoprecipitation in ex vivo lung preparations after PAR-1 activation; details: 30 min perfusion with 10 μM AP-IP3R3 peptide, then 30 μM PAR-1 agonist peptide 20 min
T1 construct: from tissue; host or cells: isolated perfused lung, whole lung homogenate

## CC[C@H](C)[C@H](NC(=O)[C@H](C)NC(=O)[C@@H](NC(=O)[C@@H]1CCCN1C(=O)[C@@H](NC(=O)[C@H](CCC(=O)O)NC(=O)[C@@H](NC(=O)[C@H](Cc1c[nH]c2ccccc12)NC(=O)[C@H](CC(C)C)NC(=O)[C@H](CCCNC(=N)N)NC(=O)[C@H](C)NC(=O)[C@H](Cc1ccccc1)NC(=O)[C@@H](N)CCCCN)[C@@H](C)O)[C@@H](C)CC)[C@@H](C)O)C(=O)N[C@H](C(=O)O)[C@@H](C)O [IP3R3 peptide, KFARLWTEIPTAIT] (H-KFARLWTEIPTAIT-OH)
[1]
  infiltration of neutrophils in lung (lung MPO activity): significantly reduced infiltration of neutrophils in lung; also recorded: mitigates infiltration of neutrophils in lung
EB3/IP3R3 interaction
  EB3/IP3R3 interaction in activated lung microvasculature: inhibits interaction between EB3 and IP3R3; also recorded: inhibited this interaction
